The nature of the assay: qHTS Assay for Lipid Storage Modulators in Drosophila S3 Cells.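 For cell number change: cells counted by Cell Tracker Red CMTPX staining in the red channel.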 The following applies: BODIPY lipid droplet fluorescence, 18-24 h; for cell number change: measured here: cell count max response, cells fed with added oleic acid. The procedure, abridged:
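Drosophila S3 cells got compounds at several concentrations plus oleic acid (400 uM solution). Laser-scanning cytometry with 488 nm excitation read lipid droplets at 500-530 nm and cells at 575-640 nm. Percent activity was relative to 20 uM Triacsin C.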
On the technique in general: Quantitative high-throughput screening tests each substance at several concentrations.

Setting [1] is: measured here: lipid fluorescence (Fed channel) AC50, cells fed with added oleic acid.
The mark [2] stands for this setting: measured here: cell number channel AC50, cells fed with added oleic acid.

The other results are listed elsewhere or left out. The main result of the screen is listed elsewhere. These columns were measured beside it and carry no call. Most of these compounds were active or inconclusive in the main read-out, so they are no random draw. Words in brackets tell the shape of the fitted curve; partial curves, single points and poor fits give uncertain potencies.

By AC50 is commonly meant the concentration at which the activity in the assay is half-maximal.

Take `CN(C(=O)COC(=O)c1ccc(=O)n(Cc2ccccc2)n1)C1CCS(=O)(=O)C1` (centres undefined): the cell number change was -8.86%. Besides, the AC50 under setting [1] is 3.66 µM [rising, partial curve].

On to `O=C(NNC(=O)c1ccc(Br)s1)c1cccc(S(=O)(=O)N2CCCC2)c1`, for which the cell number change came out at 35.9%. For the same molecule, under setting [1], the AC50 is 20.6 µM [rising, partial curve].

With `Cc1c(Cl)ccc2c1NC(=O)[C@]21[C@@H]2C(=O)N(Cc3ccccc3)C(=O)[C@@H]2[C@@H]2CCCN21`, the cell number change was -18.4%.

As to `COc1ccc(-c2nc(C#N)c(N3CCCCCC3)o2)cc1`, the cell number change is 86.2%. Also, the AC50 under setting [2] is 4.11 µM [rising, full curve]. Besides, the AC50 under setting [1] was 6.51 µM [rising, partial curve].

Turning to `Cc1ccnc(NC(=O)c2cccc(S(=O)(=O)N3CCCc4ccccc43)c2)c1`, the cell number change is 0.621%. In addition, under setting [1], the AC50 was 2.31 µM [rising, single point].

With `CC(C)N1CCN(Cc2cccc(-n3cccn3)c2)CC1CCO` (centres undefined), the cell number change came to 3.16%. For the same molecule, the AC50 under setting [1] is 1.46 µM [falling, partial curve, poor fit].

For the molecule `CC(C)C(=O)Nc1c(-c2ccc(Cl)cc2)c(=O)c2ccccc2n1C`, the cell number change is 7.8%. Further, the AC50 under setting [1] was 6.51 µM [rising, single point].

As for `Cc1nn(-c2nc(-c3ccco3)cc(C(F)(F)F)n2)c(C)c1Br`, the cell number change was -24.8%. For the same molecule, under setting [1], the AC50 is 25.9 µM [falling, single point].

Take `CC(=O)Nc1ccc(NC(=O)CCN2C(=O)C3CC=CCC3C2=O)cc1` (centres undefined): the cell number change was -41.7%. Also, the AC50 under setting [2] was 16.4 µM [falling, single point].

Consider `COc1cc(/C=C2\SC(=S)N(Nc3ccccc3)C2=O)ccc1O`, for which the cell number change is -102%. The AC50 under setting [2] was 29.1 µM [falling, single point]. The half-maximal activity concentration (AC50) under setting [1] was 0.82 µM [rising, partial curve, poor fit].

As for `COCCn1c(SCC(=O)Nc2cccc(OC)c2)nc2c(oc3ccccc32)c1=O`, the cell number change is 7.4%. For the same molecule, the AC50 under setting [1] is 0.00517 µM [rising, full curve, poor fit].

In the case of `COc1ccc(CN(C)CC(=O)Nc2ccccc2C(=O)NC2CC2)cc1`, the cell number change is -8.15%. The AC50 under setting [1] was 20.6 µM [rising, partial curve, poor fit].

Regarding `O=C(Nc1ccc2c(c1)C(=O)N(CC1CCCO1)C2=O)c1ccccc1Br` (centres undefined), the cell number change is -77.8%. The AC50 under setting [2] is 8.2 µM [falling, partial curve].

Take `Cc1cc(Cl)ccc1C(=O)C1CCCN(C(=O)c2cnsn2)C1` (centres undefined): the cell number change is 0.654%. Moreover, the AC50 under setting [1] was 0.651 µM [rising, single point].

Take `CC(C)(C)OC(=O)N[C@@H](Cc1ccccc1)c1nnc(S(=O)(=O)Cc2ccccc2)o1`: the cell number change was -57%. The AC50 under setting [2] is 29.1 µM [falling, single point]. The AC50 under setting [1] was 13 µM [falling, partial curve].

Take `COc1ccc(OC)c(Nc2nc(-c3sc(NC(=O)CC(C)C)nc3C)cs2)c1`: the cell number change stood at 14.1%. In addition, the AC50 under setting [2] was 1.46 µM [rising, full curve, poor fit]. The AC50 under setting [1] was 13 µM [falling, partial curve, poor fit].

Turning to `CC1(C)[C@@H](O)CC[C@]2(C)C3C(O)C=C4[C@H]5C[C@@](C)(CO)CC[C@]5(C)CC[C@]4(C)[C@]3(C)CC[C@@H]12` (some centres undefined), the cell number change was -19%. The AC50 under setting [1] is 29.1 µM [falling, single point].

In the case of `O=C(c1cc(-c2ccncc2)nc2ccc(Cl)cc12)N1CCN(C(=O)C2CCCO2)CC1` (centres undefined), the cell number change was 65.8%. In addition, the AC50 under setting [2] was 16.4 µM [rising, single point]. For the same molecule, under setting [1], the AC50 is 0.58 µM [falling, single point].

Consider `COc1ccccc1C(=O)N(C)CC(=O)Nc1ccc(N2CCOCC2)cc1`, for which the cell number change amounted to 3.24%. Further, the AC50 under setting [1] is 25.9 µM [falling, single point].

As to `Oc1ccccc1N1CCN(c2ncnc3scc(-c4ccc(F)cc4)c23)CC1`, the cell number change is -16.5%. Also, the AC50 under setting [1] is 29.1 µM [falling, single point].

With `COc1ccc(C(CNC(=O)Cc2ccc3ccccc3c2)N(C)C)cc1` (centres undefined), the cell number change was -2.56%. The AC50 under setting [1] is 0.116 µM [rising, partial curve, poor fit].

For the molecule `Cc1cc(N/N=C/c2ccccc2F)nc(NCc2ccccc2)n1`, the cell number change was 3.74%. Further, the AC50 under setting [1] is 0.82 µM [rising, single point].

`O=C(NCc1cccnc1)c1cccc(S(=O)(=O)NCc2ccccc2)c1`: the cell number change was 58.2%. In addition, the AC50 under setting [2] is 11.6 µM [rising, partial curve].

`COc1ccc(N(CC(=O)Nc2cccc(SC)c2)S(C)(=O)=O)cc1Cl`: the cell number change is -27.3%. Moreover, the AC50 under setting [1] is 18.4 µM [falling, partial curve, poor fit].

Consider `Cc1nc2scc(-c3ccccc3)c2c(=O)o1`, for which the cell number change is -9.66%. Besides, under setting [1], the AC50 is 0.13 µM [falling, full curve, poor fit].

Turning to `O=C(CCN1CCN(c2ccccc2)CC1)N/N=C/c1ccccc1OC(F)F`, the cell number change was 39.2%. In addition, under setting [2], the AC50 was 14.6 µM [rising, partial curve]. Further, under setting [1], the AC50 was 16.4 µM [rising, partial curve].

For `CCCN(C(=S)Nc1ccccc1)C1CCS(=O)(=O)C1` (centres undefined), the cell number change was 24.8%. The AC50 under setting [1] was 29.1 µM [rising, single point].

For `COc1ccc(CC(=O)Nc2ccc(S(=O)(=O)N3CCC(C)CC3)cc2)c(OC)c1`, the cell number change was -11.1%. Also, the AC50 under setting [1] is 0.146 µM [falling, full curve, poor fit].

On to `CCOc1ccc2nc(Nc3nc4ccc(NC(C)=O)cc4s3)sc2c1`, for which the cell number change was -16.3%. The concentration at half-maximal activity (AC50) under setting [1] is 6.51 µM [rising, single point].

`O=[N+]([O-])c1ccccc1S(=O)(=O)N1CCN(C2CCN(Cc3ccccc3)CC2)CC1`: the cell number change is -10.8%.

Take `O=C(CSc1nnc(CNc2ccc(F)cc2)n1Cc1ccccc1)NCc1ccco1`: the cell number change was -9.11%. Besides, the AC50 under setting [1] is 0.0058 µM [falling, full curve, poor fit].

On to `N#CCC(=O)Nc1ccc(C(=O)NCc2cccc(Cl)c2)cc1`, for which the cell number change was found to be 12.7%. In addition, the AC50 under setting [1] was 7.31 µM [rising, partial curve].

As to `COc1ccc(NC(=O)C23CC4CC(C2)CC(n2cnc(Br)n2)(C4)C3)c(OC)c1`, the cell number change was determined as 37.4%. Further, the AC50 under setting [2] was 6.51 µM [falling, single point].

Consider `COc1ccc(S(=O)(=O)NC(C)CCc2ccccc2)cc1` (centres undefined), for which the cell number change was -1.27%. Besides, the AC50 under setting [2] is 7.31 µM [falling, partial curve, poor fit].

For `COc1ccc(/C=N/NC(=O)CNC(=O)c2ccc(S(=O)(=O)N3CCOCC3)cc2)cc1OC`, the cell number change was 48.7%. The AC50 under setting [2] was 29.1 µM [rising, single point].

For the molecule `CCOc1ccc(C(=O)NC(C(=O)NCc2ccccn2)C(C)C)cc1` (centres undefined), the cell number change came out at 7.18%.

On to `C=CCN(c1ccccc1)S(=O)(=O)c1ccc2c(c1)NC(=O)C(C)C(=O)N2` (centres undefined), for which the cell number change is -21%. Further, the AC50 under setting [1] is 0.092 µM [falling, full curve].

For the molecule `CCn1c(SCC(=O)N/N=C(/C)c2ccncc2)nc2ccccc21`, the cell number change worked out at 7.49%.

Turning to `COc1cc(C2CC(=O)Nc3cc(C)c(C)cc32)cc(OC)c1OC` (centres undefined), the cell number change is -1.14%. In addition, under setting [1], the AC50 is 13 µM [falling, partial curve].

For `O=C(Cn1cnc2ccccc2c1=O)NCCCN1CCCC1=O`, the cell number change was determined as 29.6%. Under setting [2], the AC50 was 0.00517 µM [rising, full curve, poor fit]. Under setting [1], the AC50 is 0.82 µM [rising, full curve, poor fit].

In the case of `COc1ccc(OC)c(NC(=S)Nc2ccccc2)c1`, the cell number change was -23.6%.

Consider `COc1ccccc1NS(=O)(=O)c1cccs1`, for which the cell number change was -10.8%. Under setting [1], the AC50 was 23.1 µM [falling, single point].

Consider `CCS(=O)(=O)N1CCN(C(=O)c2cccnc2)CC1`, for which the cell number change was 3.69%.

With `Cc1ccccc1N1OC2C(=O)N(c3ccc(F)cc3)C(=O)C2C1c1ccccn1` (centres undefined), the cell number change is -80.5%. In addition, the AC50 under setting [2] is 18.4 µM [falling, partial curve]. In addition, under setting [1], the AC50 is 23.1 µM [falling, single point].

As for `O=C(N/N=C/c1ccncc1)c1ccccc1[N+](=O)[O-]`, the cell number change turned out to be 31.1%. In addition, the AC50 under setting [2] was 23.1 µM [rising, single point]. Also, the AC50 under setting [1] is 4.61 µM [rising, single point].

Take `Cc1ccc(N=C2NC(=O)CS2)cc1C`: the cell number change turned out to be 16.1%.

Take `CCCCN(C(=S)NC(=O)c1cc(OC)c(OC)c(OC)c1)c1c(N)n(Cc2ccccc2)c(=O)[nH]c1=O`: the cell number change amounted to 21.8%. Further, the AC50 under setting [1] was 11.6 µM [rising, partial curve, poor fit].

Take `Cc1nn(C)c(C(=O)Nc2ccc(S(=O)(=O)NC34CC5CC(CC(C5)C3)C4)cc2)c1Br`: the cell number change is -36.6%. Also, the AC50 under setting [2] was 20.6 µM [falling, partial curve, poor fit].

On to `CCOC(=O)C1CCCN(S(=O)(=O)c2cc3c4c(c2)CCC(=O)N4CCC3)C1` (centres undefined), for which the cell number change amounted to 35%. For the same molecule, the concentration at half-maximal activity (AC50) under setting [2] is 11.6 µM [rising, partial curve, poor fit].

Take `COC(=O)Nc1sc2c(c1C(=O)NCc1ccco1)CCC2`: under setting [1], the AC50 is 0.58 µM [rising, single point].

Regarding `O=C(c1cc(-c2ccccc2)n[nH]1)N1CCN(S(=O)(=O)c2ccccc2)CC1`, the cell number change turned out to be 17%. Also, the AC50 under setting [1] is 18.4 µM [falling, single point].

For `C/C(N)=C(/C#N)C(=O)COC(=O)c1cc(S(=O)(=O)N2CCCCC2)ccc1C`, the AC50 under setting [1] is 0.731 µM [rising, single point].

On to `CCOc1ccc(C2C(C(=O)OC)=C(C)N=C3SCCC(=O)N32)cc1OCC` (centres undefined), for which the cell number change is 12%. For the same molecule, the AC50 under setting [2] was 6.51 µM [rising, partial curve, poor fit]. The AC50 under setting [1] is 2.06 µM [rising, partial curve].

As for `CCOC(=O)c1c(C)[nH]c(C(=O)N2CCC(C(=O)OCC)CC2)c1C`, the cell number change is -12.3%.

Consider `Cc1cc(C)c(C)c(S(=O)(=O)N2CCN(C(=O)c3ccc4c(=O)n5c(nc4c3)CCC5)CC2)c1C`, for which the cell number change was 49.4%. For the same molecule, under setting [2], the AC50 was 2.06 µM [rising, full curve].

With `COc1cc(-c2nnc(Cn3cc(C(F)(F)F)ccc3=O)o2)cc(OC)c1OC`, under setting [1], the AC50 is 6.51 µM [falling, single point].

Consider `Cc1c(C(=O)OCC(=O)Nc2c(C)n(C)n(-c3ccccc3)c2=O)cccc1[N+](=O)[O-]`, for which the cell number change was found to be 94.7%. For the same molecule, the AC50 under setting [2] was 20.6 µM [rising, single point]. In addition, the AC50 under setting [1] was 0.58 µM [falling, single point].
